Measured values: patent US20100210819A1, “Biosensors to measure InsP3 concentration in living cells” (priority 2006, published 2010)

How the values were obtained:
COS-1 cells = assay: Acceptor (YFP) photobleach in COS-1 cells expressing FIRE-1 and FIRE-3; format: cell-based
[1] = test system: adult cat ventricular myocytes; assay: Acceptor (YFP) photobleach in adult cat ventricular myocytes expressing FIRE-1; format: cell-based

## FIRE-1: FRET biosensor: type-1 InsP3R ligand binding domain (589 residues) fused amino-terminally with CFP and carboxyl-terminally with YFP
COS-1 cells; COS-1 cells, before [InsP3] increases
  basal extent of FRET, corrected for incomplete YFP photobleach: about 22.6±2.1%
COS-1 cells; COS-1 cells, n=8, mean YFP photobleach 58.2% (FIRE-1), 54.9% (FIRE-3)
  mean increased CFP fluorescence after YFP photobleach: 8.9±1.3%
COS-1 cells; a COS-1 cell, 58% decrease in YFP fluorescence
  increase of CFP donor fluorescence after partial YFP photobleach, single cell: 12%
[1]; cell dialyzed with 10 μM InsP3, 41% bleach of YFP
  increase of CFP fluorescence after YFP photobleach, example cell: 13%
[1]; high [InsP3]i, cells internally perfused with 10 μM InsP3
  mean increase of CFP fluorescence after YFP photobleach: 11.8±1.2%
[1]; intact adult myocyte, YFP photobleach by 47%
  increased CFP fluorescence after YFP photobleach, example cell: 8%
[1]; intact adult myocytes
  mean increase of CFP fluorescence after YFP photobleach: 5.4±1.0%
